From article PMC12287344
Results are given in words; binding and its absence hold for the method and conditions named. Binding seen in cells or lysates may run through a third protein. Some entries that bind do so weakly or less than the wild type.

Sequences of proteins named here, by UniProt entry; tags and fusion partners are left off.
UniProt P31273: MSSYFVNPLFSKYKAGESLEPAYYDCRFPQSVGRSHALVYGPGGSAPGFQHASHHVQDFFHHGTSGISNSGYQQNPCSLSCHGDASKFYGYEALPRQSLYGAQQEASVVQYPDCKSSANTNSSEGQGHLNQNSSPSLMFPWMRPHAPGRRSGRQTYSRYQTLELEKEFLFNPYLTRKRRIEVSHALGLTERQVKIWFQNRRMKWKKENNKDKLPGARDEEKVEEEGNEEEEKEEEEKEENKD
UniProt Q13547: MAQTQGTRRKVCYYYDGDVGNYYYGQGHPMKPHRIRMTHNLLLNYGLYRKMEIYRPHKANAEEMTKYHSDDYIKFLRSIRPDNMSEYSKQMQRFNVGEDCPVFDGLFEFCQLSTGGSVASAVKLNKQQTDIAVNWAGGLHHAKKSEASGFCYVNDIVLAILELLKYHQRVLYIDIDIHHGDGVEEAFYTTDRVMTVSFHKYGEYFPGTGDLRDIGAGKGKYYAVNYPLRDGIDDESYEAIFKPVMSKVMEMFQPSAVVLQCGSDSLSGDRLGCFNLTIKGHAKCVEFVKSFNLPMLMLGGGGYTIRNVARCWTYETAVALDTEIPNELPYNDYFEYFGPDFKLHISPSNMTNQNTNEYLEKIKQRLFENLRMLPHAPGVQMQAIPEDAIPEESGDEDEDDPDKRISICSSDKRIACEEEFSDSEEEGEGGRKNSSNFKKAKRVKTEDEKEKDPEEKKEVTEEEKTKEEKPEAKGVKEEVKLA

What was measured:
[1] = biological target: Homeobox C8 (HOXC8) (human (endogenous in A549 and H460)) (UniProt P31273); assay: co-IP; endogenous proteins in A549 or H460 lysate (25 mM Tris-HCl pH 7.4, 150 mM NaCl, 1 mM EDTA, 1% NP-40, 5% glycerol); precipitated with HDAC1 or HOXC8 antibody, normal IgG as negative control, Protein G Dynabeads; western blot
[2] = biological target: HDAC1 (human (endogenous in A549 and H460)) (UniProt Q13547); assay: as above
[3] = biological target: GST-tagged full length HDAC1 (UniProt Q13547); assay: pull-down; GST-HDAC1 fusion proteins on Glutathione Sepharose 4B beads incubated with A549 cell lysate (20 mM Tris-Cl pH 8.0, 200 mM NaCl, 1 mM EDTA, 0.5% NP-40) for 3 h at 4 °C; HOXC8 detected by western blot; only the target purified

| Substance | binding [1] | binding [2] | binding [3] |
| --- | --- | --- | --- |
| HDAC1 (from UniProt Q13547 1-482) | binds |  |  |
| Homeobox C8 (HOXC8) (from UniProt P31273 1-242) |  | binds | binds |
